Experimental data from paper doi:10.1101/2022.11.21.517367.

Biological target: Pseudomonas aeruginosa FtsW (Pseudomonas aeruginosa) (UniProt Q9HW00)
Assay: cryo-EM structure

Pseudomonas aeruginosa FtsI (from UniProt G3XD46 1-579) (enzyme)
binding: binds

Results are given in words; binding and its absence hold for the method and conditions named. Binding calls can cover weak binding; strength is not graded here.
